From PMC12077210, “Di-HAMP domains of a cytoplasmic chemoreceptor modulate nucleoid array formation and downstream signaling” (mBio, 2024)

Legend:
Assay in all cases: EMSA
Settings in all cases: EMSA: 50 mM Tris pH 7.4, 50 mM NaCl, 1 mM DTT, 10% glycerol, 25 C, 30 min, 0.5-2 uM DNA; recombinant protein; residues 1-417; protein details: C-terminal His6 (pHis17)
[1] = molecular target: T1, FrzCDΔH1ΔH2 (EMSA) del32-136 (Myxococcus xanthus) (UniProt P43500)
T1 sequence (looked up): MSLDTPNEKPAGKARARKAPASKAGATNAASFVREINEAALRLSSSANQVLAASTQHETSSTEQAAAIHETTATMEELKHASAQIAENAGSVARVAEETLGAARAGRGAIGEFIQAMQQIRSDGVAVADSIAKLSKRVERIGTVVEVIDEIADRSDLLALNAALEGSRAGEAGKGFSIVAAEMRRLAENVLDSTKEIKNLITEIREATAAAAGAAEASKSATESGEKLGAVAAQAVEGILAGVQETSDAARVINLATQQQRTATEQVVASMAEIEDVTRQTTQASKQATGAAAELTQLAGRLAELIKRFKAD

[2] = molecular target: T2, FrzCDΔH1 (EMSA) del32-83 (Myxococcus xanthus) (UniProt P43500)
T2 sequence (looked up): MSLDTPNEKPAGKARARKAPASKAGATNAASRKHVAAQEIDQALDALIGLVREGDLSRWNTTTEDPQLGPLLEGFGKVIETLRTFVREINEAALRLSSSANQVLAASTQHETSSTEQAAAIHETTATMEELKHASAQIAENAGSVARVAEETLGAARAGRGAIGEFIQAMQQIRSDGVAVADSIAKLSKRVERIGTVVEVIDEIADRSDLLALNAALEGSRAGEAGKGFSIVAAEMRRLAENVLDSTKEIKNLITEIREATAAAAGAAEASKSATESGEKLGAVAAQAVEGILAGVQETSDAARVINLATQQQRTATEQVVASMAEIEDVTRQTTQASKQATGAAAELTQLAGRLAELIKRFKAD

[3] = molecular target: T3, FrzCDΔH2 (EMSA/SEC-MALS) del84-136 (Myxococcus xanthus) (UniProt P43500)
T3 sequence (looked up): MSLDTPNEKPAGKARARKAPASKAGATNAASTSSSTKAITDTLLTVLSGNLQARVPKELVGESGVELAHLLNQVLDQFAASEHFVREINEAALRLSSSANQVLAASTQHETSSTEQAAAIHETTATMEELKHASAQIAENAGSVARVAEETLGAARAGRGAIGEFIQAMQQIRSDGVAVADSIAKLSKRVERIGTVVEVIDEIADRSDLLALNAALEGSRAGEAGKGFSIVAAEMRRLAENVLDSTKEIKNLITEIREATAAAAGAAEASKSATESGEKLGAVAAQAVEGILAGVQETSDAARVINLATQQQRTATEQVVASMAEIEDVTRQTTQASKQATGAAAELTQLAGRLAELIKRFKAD

[4] = molecular target: T4, FrzCD (EMSA/SEC-MALS) (Myxococcus xanthus) (UniProt P43500)
T4 sequence (looked up): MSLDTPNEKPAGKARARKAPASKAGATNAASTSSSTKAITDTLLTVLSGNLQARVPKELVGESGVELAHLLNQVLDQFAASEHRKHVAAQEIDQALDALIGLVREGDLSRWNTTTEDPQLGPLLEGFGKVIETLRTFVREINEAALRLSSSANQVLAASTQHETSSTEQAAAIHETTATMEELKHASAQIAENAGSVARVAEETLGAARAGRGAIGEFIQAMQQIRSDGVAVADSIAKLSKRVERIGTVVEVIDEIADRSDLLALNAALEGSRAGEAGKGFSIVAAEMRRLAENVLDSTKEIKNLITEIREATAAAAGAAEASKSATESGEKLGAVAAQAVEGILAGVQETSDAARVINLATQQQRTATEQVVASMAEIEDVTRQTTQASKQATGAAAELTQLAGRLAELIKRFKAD

| Sequence | binding result [1] | binding result [2] | binding result [3] | binding result [4] |
| --- | --- | --- | --- | --- |
| CTTGCAGTAGAGCTGACCATGATTACGCCATCAGCAGCTCCAGGTCGTACCTCCAGCTACCAATCCCCG (double strand) [69 bp DNA] | binds | binds | binds | binds |
| TAATACGACTCACTATAGGG (double strand) [20 bp DNA] |  |  |  | binds |
| CTCACTATAGGG (double strand) [12 bp DNA] |  |  |  | binds |
| GTCACCTGCTCTAGCTAATAGACTGAGCCGAGGTG (double strand) [35 bp DNA] |  |  |  | binds |

For at least one entry, the source does not settle the construct or the ends of the probe. At least one verdict rests on a figure or table, not on a statement of the authors. Protein sequences can lack the tags named with them.
